Results reported in publication PMC5643326.
No constants are given. Whether binding was seen depends on the method and setting. In cells and extracts the contact can be indirect. Some binding calls cover weakened binding; strength is not graded here. Sequences can lack the tags named with a protein.

Biological target: T1, Sch9-FLAG (yeast) (UniProt P11792)
T1 sequence: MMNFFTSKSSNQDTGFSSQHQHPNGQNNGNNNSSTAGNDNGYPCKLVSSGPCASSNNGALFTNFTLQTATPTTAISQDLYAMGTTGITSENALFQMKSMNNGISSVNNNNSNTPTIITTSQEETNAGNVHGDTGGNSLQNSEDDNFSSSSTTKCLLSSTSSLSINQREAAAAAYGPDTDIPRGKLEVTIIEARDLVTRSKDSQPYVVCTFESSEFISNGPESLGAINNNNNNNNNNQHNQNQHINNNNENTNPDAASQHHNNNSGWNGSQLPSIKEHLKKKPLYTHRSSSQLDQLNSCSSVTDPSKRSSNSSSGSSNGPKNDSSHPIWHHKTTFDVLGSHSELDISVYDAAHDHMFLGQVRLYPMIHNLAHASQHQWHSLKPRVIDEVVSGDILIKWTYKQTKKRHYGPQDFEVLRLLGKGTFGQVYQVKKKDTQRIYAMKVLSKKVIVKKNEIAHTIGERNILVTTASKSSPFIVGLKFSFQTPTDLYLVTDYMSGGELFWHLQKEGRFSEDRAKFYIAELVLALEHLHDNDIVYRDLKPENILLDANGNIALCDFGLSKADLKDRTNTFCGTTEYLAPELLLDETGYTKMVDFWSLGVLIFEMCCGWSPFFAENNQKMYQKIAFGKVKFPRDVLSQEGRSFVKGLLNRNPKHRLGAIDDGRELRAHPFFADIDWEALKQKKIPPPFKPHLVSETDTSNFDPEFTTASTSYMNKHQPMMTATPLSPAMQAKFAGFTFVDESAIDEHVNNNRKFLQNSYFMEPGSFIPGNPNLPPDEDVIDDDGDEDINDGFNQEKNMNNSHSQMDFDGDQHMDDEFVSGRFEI
Test: co-IP; Sch9-FLAG from cleared glass bead lysate (30-35 mg total protein) of Δsch9 + pYEPlac195-Sch9-FLAG cells bound to anti-FLAG M2 beads, 1 h at 4 °C; 20 mM HEPES-KOH, 150 mM potassium acetate, 2 mM magnesium acetate, 10% glycerol, pH 7.5; wash with 0.1% Triton X-100, then without detergent; immunoblot with α-Sch9, α-Ssb, α-Maf1; control: untagged Sch9

binding: binds weakly
B1: Maf1 (protein, UniProt P41910 1-395)
chain: MKFIDELDIERVNQTLNFETNDCKIVGSCDIFTTKAVASDRKLYKTIDQHLDTILQENENYNATLQQQLAAPETNQSPCSSPFYSNRRDSNSFWEQKRRISFSEYNSNNNTNNSNGNSSNNNNYSGPNGSSPATFPKSAKLNDQNLKELVSNYDSGSMSSSSLDSSSKNDERIRRRSSSSISSFKSGKSSNNNYSSGTATNNVNKRRKSSINERPSNLSLGPFGPINEPSSRKIFAYLIAILNASYPDHDFSSVEPTDFVKTSLKTFISKFENTLYSLGRQPEEWVWEVINSHMTLSDCVLFQYSPSNSFLEDEPGYLWNLIGFLYNRKRKRVAYLYLICSRLNSSTGEVEDALAKKPQGKLIIDDGSNEYEGEYDFTYDENVIDDKSDQEESLQ
